Patent US20230416352A1
These are yes or no findings as the source states them, for the method shown. Some binding calls cover weakened binding; strength is not graded here.

By UniProt entry, the sequences of proteins in these tests, tags left out. Residues count along the entry.
UniProt P29279, residues 27-349: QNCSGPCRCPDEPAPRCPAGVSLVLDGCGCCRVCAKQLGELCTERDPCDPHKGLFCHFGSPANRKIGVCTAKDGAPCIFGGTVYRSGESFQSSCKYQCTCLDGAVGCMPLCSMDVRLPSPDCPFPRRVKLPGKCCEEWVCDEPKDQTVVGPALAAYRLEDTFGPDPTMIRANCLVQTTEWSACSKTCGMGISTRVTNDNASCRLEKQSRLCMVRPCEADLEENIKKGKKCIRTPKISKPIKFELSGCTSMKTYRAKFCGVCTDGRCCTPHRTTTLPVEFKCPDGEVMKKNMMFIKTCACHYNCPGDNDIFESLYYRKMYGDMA

Key:
[1] = biological target: human CTGF protein (R&D, Cat No. 9190-CC) (human) (UniProt P29279); assay: ELISA, plate coated with human CTGF protein, HRP anti-human secondary antibody, OD450
[2] = biological target: human CTGF protein (R&D, Cat No. 9190-CC) (human) (UniProt P29279); assay: ELISA, plate coated with human CTGF (R&D)

Binder | binding [1] | binding [2]
Hu147-11wk (antibody, human IgG1, kappa, V domains shown) VH: EVQLVESGGGLVQPGGSLRLSCAASGFTFSTYAMNWVRQAPGKGLEWVGRIRTKSNNYATYYADSVKDRFTISRDDSKNSLYLQMNSLKTEDTAVYYCVETGFAYWDQGTLVTVSS VL: EIVLTQSPATLSLSPGERATLSCSASSSVSYMHWFQQKPGQSPRLLIYSTSNLASGIPARFSGSGSGTDYTLTISSLEPEDFAVYYCQQRSSYPLTFGQGTKLEIKR | – | binds
Hu147-12wk (antibody, human IgG1, kappa, V domains shown) VH: EVQLVESGGGLVQPGGSLRLSCAASGFTFSTYAMNWVRQAPGKGLEWVGRIRTKSNNYATYYADSVKDRFTISRDDSKNSLYLQMNSLKTEDTAVYYCVETGFAYWDQGTLVTVSS VL: EIVLTQSPATLSLSPGERATLSCSASSSVSYMHWFQQKPGQSPKLLIYSTSNLASGIPARFSGSGSGTDYTLTISSLEPEDFAVYYCQQRSSYPLTFGQGTKLEIKR | – | binds
Hu147-13wk (antibody, human IgG1, kappa, V domains shown) VH: EVQLVESGGGLVQPGGSLRLSCAASGFTFSTYAMNWVRQAPGKGLEWVGRIRTKSNNYATYYADSVKDRFTISRDDSKNSLYLQMNSLKTEDTAVYYCVETGFAYWDQGTLVTVSS VL: EIVLTQSPATLSLSPGERATLSCSASSSVSYMHWFQQKPGQSPKLWIYSTSNLASGVPARFSGSGSGTDYTLTISSLEPEDFAVYYCQQRSSYPLTFGQGTKLEIKR | – | binds
Hu147-14wk (antibody, human IgG1, kappa, V domains shown) VH: EVQLVESGGGLVQPGGSLRLSCAASGFTFSTYAMNWVRQAPGKGLEWVGRIRTKSNNYATYYADSVKDRFTISRDDSKNSLYLQMNSLKTEDTAVYYCVETGFAYWDQGTLVTVSS VL: DIQMTQSPSSLSASVGDRVTITCSASSSVSYMHWFQQKPGKSPKLLIYSTSNLASGVPSRFSGSGSGTDYTLTISSLQPEDFATYYCQQRSSYPLTFGQGTKLEIKR | – | binds
Hu147-15wk (antibody, human IgG1, kappa, V domains shown) VH: EVQLVESGGGLVQPGGSLRLSCAASGFTFSTYAMNWVRQAPGKGLEWVGRIRTKSNNYATYYADSVKDRFTISRDDSKNSLYLQMNSLKTEDTAVYYCVETGFAYWDQGTLVTVSS VL: DIQLTQSPSSLSASVGDRVTITCSASSSVSYMHWFQQKPGKSPKLWIYSTSNLASGVPSRFSGSGSGTDYTLTISSLQPEDFATYYCQQRSSYPLTFGQGTKLEIKR | – | binds
Hu147-21wk (antibody, human IgG1, kappa, V domains shown) VH: EVQLVESGGGLVQPGGSLRLSCAASGFTFNTYAMNWVRQAPGKGLEWVARIRTKSNNYATYYADSVKDRFTISRDDSKNSLYLQMNSLKTEDTAVYYCVETGFAYWDQGTLVTVSS VL: EIVLTQSPATLSLSPGERATLSCSASSSVSYMHWFQQKPGQSPRLLIYSTSNLASGIPARFSGSGSGTDYTLTISSLEPEDFAVYYCQQRSSYPLTFGQGTKLEIKR | – | binds
Hu147-22wk (antibody, human IgG1, kappa, V domains shown) VH: EVQLVESGGGLVQPGGSLRLSCAASGFTFNTYAMNWVRQAPGKGLEWVARIRTKSNNYATYYADSVKDRFTISRDDSKNSLYLQMNSLKTEDTAVYYCVETGFAYWDQGTLVTVSS VL: EIVLTQSPATLSLSPGERATLSCSASSSVSYMHWFQQKPGQSPKLLIYSTSNLASGIPARFSGSGSGTDYTLTISSLEPEDFAVYYCQQRSSYPLTFGQGTKLEIKR | – | binds
Hu147-23wk (antibody, human IgG1, kappa, V domains shown) VH: EVQLVESGGGLVQPGGSLRLSCAASGFTFNTYAMNWVRQAPGKGLEWVARIRTKSNNYATYYADSVKDRFTISRDDSKNSLYLQMNSLKTEDTAVYYCVETGFAYWDQGTLVTVSS VL: EIVLTQSPATLSLSPGERATLSCSASSSVSYMHWFQQKPGQSPKLWIYSTSNLASGVPARFSGSGSGTDYTLTISSLEPEDFAVYYCQQRSSYPLTFGQGTKLEIKR | – | binds
Hu147-24wk (antibody, human IgG1, kappa, V domains shown) VH: EVQLVESGGGLVQPGGSLRLSCAASGFTFNTYAMNWVRQAPGKGLEWVARIRTKSNNYATYYADSVKDRFTISRDDSKNSLYLQMNSLKTEDTAVYYCVETGFAYWDQGTLVTVSS VL: DIQMTQSPSSLSASVGDRVTITCSASSSVSYMHWFQQKPGKSPKLLIYSTSNLASGVPSRFSGSGSGTDYTLTISSLQPEDFATYYCQQRSSYPLTFGQGTKLEIKR | – | binds
Hu95-51yk (antibody, human IgG1, kappa, V domains shown) VH: EVQLVQSGAEVKKPGASVKVSCRASGFTFTNYAIHWVKQAPGQRLEWMGLVYPYTGGTAYNQKFKDKVTLTFDTSASTAYMELSSLRSEDTAVYYCARWGMIPGTNSYFDVWGQGTTVTVSS VL: EIVLTQSPATLSLSPGERATLSCRASSSVSYIHWYQQKPGQAPRPWIYATSNLASGIPARFSGSGSGTDYTLTISRLEPEDFAVYYCQQWNSNPWTFGGGTKVEIKR | – | binds

Next, values leading:

binding [1] | binding [2] | Binder
binds | binds | Hu164-77wl (antibody, human IgG1, lambda, V domains shown) VH: EVQLQESGPGLVKPSQTLSLTCTVSGFSISTFGVHWIRQHPGKGLEWIGVIWRRGGTDYNAAFMSRVTISKDTSKNQVSLKLSSVTAADTAVYYCARDGGFDYWGQGTTVTVSS VL: ETVVTQEPSLTVSPGGTVTLTCRSSIGAVTTSNYANWVQQKPGQAFRGLIGGTSNRAPWTPARFSGSLLGGKAALTLSGVQPEDEAEYYCALWYSTHYVFGGGTKLTVLG
binds | binds | Hu164-87wl (antibody, human IgG1, lambda, V domains shown) VH: EVQLQESGPGLVKPSQTLSLTCTVSGFSISTFGVHWIRQHPGKGLEWLGVIWRRGGTDYNAAFMSRLTISKDTSKNQVSFKLSSVTAADTAVYYCARDGGFDYWGQGTTVTVSS VL: ETVVTQEPSLTVSPGGTVTLTCRSSIGAVTTSNYANWVQQKPGQAFRGLIGGTSNRAPWTPARFSGSLLGGKAALTLSGVQPEDEAEYYCALWYSTHYVFGGGTKLTVLG
binds | binds | Hu164-68wl (antibody, human IgG1, lambda, V domains shown) VH: EVTLKESGPVLVKPTETLTLTCTVSGFSLSTFGVHWIRQPPGKGLEWLGVIWRRGGTDYNAAFMSRLTISKDTSKSQVVFTMTNMDPVDTATYYCARDGGFDYWGQGTTVTVSS VL: ETVVTQEPSFSVSPGGTVTLTCRSSIGAVTTSNYANWVQQTPGQAFRGLIGGTSNRAPGVPDRFSGSILGNKAALTITGAQADDESDYYCALWYSTHYVFGGGTKLTVLG
binds | binds | Hu164-69wl (antibody, human IgG1, lambda, V domains shown) VH: EVTLKESGPVLVKPTETLTLTCTVSGFSLSTFGVHWIRQPPGKGLEWLGVIWRRGGTDYNAAFMSRLTISKDTSKSQVVFTMTNMDPVDTATYYCARDGGFDYWGQGTTVTVSS VL: ESVVTQPPSVSGAPGQRVTISCRSSIGAVTTSNYANWVQQLPGTAFKGLIGGTSNRAPGVPDRFSGSKSGTSASLAITGLQAEDEADYYCALWYSTHYVFGGGTKLTVLG
binds | binds | Hu164-57wl (antibody, human IgG1, lambda, V domains shown) VH: EVTLKESGPVLVKPTETLTLTCTVSGFSLSTFGVHWIRQPPGKALEWLAVIWRRGGTDYNAAFMSRLTISKDTSKSQVVLTMTNMDPVDTATYYCARDGGFDYWGQGTTVTVSS VL: ETVVTQEPSLTVSPGGTVTLTCRSSIGAVTTSNYANWVQQKPGQAFRGLIGGTSNRAPWTPARFSGSLLGGKAALTLSGVQPEDEAEYYCALWYSTHYVFGGGTKLTVLG
– | binds | Hu147-31wk (antibody, human IgG1, kappa, V domains shown) VH: EVQLVESGGGLVQPGGSLRLSCAASGFSFNTYAMNWVRQAPGKGLEWVARIRTKSNNYATYYADSVKDRFTISRDDSESSLYLQMNSLKTEDTAVYYCVETGFAYWDQGTLVTVSS VL: EIVLTQSPATLSLSPGERATLSCSASSSVSYMHWFQQKPGQSPRLLIYSTSNLASGIPARFSGSGSGTDYTLTISSLEPEDFAVYYCQQRSSYPLTFGQGTKLEIKR
– | binds | Hu147-32wk (antibody, human IgG1, kappa, V domains shown) VH: EVQLVESGGGLVQPGGSLRLSCAASGFSFNTYAMNWVRQAPGKGLEWVARIRTKSNNYATYYADSVKDRFTISRDDSESSLYLQMNSLKTEDTAVYYCVETGFAYWDQGTLVTVSS VL: EIVLTQSPATLSLSPGERATLSCSASSSVSYMHWFQQKPGQSPKLLIYSTSNLASGIPARFSGSGSGTDYTLTISSLEPEDFAVYYCQQRSSYPLTFGQGTKLEIKR
– | binds | Hu147-33wk (antibody, human IgG1, kappa, V domains shown) VH: EVQLVESGGGLVQPGGSLRLSCAASGFSFNTYAMNWVRQAPGKGLEWVARIRTKSNNYATYYADSVKDRFTISRDDSESSLYLQMNSLKTEDTAVYYCVETGFAYWDQGTLVTVSS VL: EIVLTQSPATLSLSPGERATLSCSASSSVSYMHWFQQKPGQSPKLWIYSTSNLASGVPARFSGSGSGTDYTLTISSLEPEDFAVYYCQQRSSYPLTFGQGTKLEIKR
– | binds | Hu147-34wk (antibody, human IgG1, kappa, V domains shown) VH: EVQLVESGGGLVQPGGSLRLSCAASGFSFNTYAMNWVRQAPGKGLEWVARIRTKSNNYATYYADSVKDRFTISRDDSESSLYLQMNSLKTEDTAVYYCVETGFAYWDQGTLVTVSS VL: DIQMTQSPSSLSASVGDRVTITCSASSSVSYMHWFQQKPGKSPKLLIYSTSNLASGVPSRFSGSGSGTDYTLTISSLQPEDFATYYCQQRSSYPLTFGQGTKLEIKR
